# Hit rate of the full screen: of about 290,000 compounds, about 110 (0.038%) were called active. The inconclusive results got no clear call from the source; some entries with a clear call stand among them for comparison. The call rests on the fitted dose curve; in most records, active means well fitted inhibition curve with a large enough effect in the polarisation, with a control signal flat (not every such curve was filed as active); inconclusive means small, poorly fitted or top-dose-only effect, or effect the other way, or a change in a side signal; inactive means no such curve, though single readings can be large or run the other way; the % refers to the polarisation. Where the call is inconclusive, the potency comes from a doubtful curve fit. A note “side channel” means that the fit belongs to a control or component signal, not to the main read-out.
# The chains behind the UniProt entries cited, without tags or fusion partners.
# UniProt Q03164, whole entry, looked up: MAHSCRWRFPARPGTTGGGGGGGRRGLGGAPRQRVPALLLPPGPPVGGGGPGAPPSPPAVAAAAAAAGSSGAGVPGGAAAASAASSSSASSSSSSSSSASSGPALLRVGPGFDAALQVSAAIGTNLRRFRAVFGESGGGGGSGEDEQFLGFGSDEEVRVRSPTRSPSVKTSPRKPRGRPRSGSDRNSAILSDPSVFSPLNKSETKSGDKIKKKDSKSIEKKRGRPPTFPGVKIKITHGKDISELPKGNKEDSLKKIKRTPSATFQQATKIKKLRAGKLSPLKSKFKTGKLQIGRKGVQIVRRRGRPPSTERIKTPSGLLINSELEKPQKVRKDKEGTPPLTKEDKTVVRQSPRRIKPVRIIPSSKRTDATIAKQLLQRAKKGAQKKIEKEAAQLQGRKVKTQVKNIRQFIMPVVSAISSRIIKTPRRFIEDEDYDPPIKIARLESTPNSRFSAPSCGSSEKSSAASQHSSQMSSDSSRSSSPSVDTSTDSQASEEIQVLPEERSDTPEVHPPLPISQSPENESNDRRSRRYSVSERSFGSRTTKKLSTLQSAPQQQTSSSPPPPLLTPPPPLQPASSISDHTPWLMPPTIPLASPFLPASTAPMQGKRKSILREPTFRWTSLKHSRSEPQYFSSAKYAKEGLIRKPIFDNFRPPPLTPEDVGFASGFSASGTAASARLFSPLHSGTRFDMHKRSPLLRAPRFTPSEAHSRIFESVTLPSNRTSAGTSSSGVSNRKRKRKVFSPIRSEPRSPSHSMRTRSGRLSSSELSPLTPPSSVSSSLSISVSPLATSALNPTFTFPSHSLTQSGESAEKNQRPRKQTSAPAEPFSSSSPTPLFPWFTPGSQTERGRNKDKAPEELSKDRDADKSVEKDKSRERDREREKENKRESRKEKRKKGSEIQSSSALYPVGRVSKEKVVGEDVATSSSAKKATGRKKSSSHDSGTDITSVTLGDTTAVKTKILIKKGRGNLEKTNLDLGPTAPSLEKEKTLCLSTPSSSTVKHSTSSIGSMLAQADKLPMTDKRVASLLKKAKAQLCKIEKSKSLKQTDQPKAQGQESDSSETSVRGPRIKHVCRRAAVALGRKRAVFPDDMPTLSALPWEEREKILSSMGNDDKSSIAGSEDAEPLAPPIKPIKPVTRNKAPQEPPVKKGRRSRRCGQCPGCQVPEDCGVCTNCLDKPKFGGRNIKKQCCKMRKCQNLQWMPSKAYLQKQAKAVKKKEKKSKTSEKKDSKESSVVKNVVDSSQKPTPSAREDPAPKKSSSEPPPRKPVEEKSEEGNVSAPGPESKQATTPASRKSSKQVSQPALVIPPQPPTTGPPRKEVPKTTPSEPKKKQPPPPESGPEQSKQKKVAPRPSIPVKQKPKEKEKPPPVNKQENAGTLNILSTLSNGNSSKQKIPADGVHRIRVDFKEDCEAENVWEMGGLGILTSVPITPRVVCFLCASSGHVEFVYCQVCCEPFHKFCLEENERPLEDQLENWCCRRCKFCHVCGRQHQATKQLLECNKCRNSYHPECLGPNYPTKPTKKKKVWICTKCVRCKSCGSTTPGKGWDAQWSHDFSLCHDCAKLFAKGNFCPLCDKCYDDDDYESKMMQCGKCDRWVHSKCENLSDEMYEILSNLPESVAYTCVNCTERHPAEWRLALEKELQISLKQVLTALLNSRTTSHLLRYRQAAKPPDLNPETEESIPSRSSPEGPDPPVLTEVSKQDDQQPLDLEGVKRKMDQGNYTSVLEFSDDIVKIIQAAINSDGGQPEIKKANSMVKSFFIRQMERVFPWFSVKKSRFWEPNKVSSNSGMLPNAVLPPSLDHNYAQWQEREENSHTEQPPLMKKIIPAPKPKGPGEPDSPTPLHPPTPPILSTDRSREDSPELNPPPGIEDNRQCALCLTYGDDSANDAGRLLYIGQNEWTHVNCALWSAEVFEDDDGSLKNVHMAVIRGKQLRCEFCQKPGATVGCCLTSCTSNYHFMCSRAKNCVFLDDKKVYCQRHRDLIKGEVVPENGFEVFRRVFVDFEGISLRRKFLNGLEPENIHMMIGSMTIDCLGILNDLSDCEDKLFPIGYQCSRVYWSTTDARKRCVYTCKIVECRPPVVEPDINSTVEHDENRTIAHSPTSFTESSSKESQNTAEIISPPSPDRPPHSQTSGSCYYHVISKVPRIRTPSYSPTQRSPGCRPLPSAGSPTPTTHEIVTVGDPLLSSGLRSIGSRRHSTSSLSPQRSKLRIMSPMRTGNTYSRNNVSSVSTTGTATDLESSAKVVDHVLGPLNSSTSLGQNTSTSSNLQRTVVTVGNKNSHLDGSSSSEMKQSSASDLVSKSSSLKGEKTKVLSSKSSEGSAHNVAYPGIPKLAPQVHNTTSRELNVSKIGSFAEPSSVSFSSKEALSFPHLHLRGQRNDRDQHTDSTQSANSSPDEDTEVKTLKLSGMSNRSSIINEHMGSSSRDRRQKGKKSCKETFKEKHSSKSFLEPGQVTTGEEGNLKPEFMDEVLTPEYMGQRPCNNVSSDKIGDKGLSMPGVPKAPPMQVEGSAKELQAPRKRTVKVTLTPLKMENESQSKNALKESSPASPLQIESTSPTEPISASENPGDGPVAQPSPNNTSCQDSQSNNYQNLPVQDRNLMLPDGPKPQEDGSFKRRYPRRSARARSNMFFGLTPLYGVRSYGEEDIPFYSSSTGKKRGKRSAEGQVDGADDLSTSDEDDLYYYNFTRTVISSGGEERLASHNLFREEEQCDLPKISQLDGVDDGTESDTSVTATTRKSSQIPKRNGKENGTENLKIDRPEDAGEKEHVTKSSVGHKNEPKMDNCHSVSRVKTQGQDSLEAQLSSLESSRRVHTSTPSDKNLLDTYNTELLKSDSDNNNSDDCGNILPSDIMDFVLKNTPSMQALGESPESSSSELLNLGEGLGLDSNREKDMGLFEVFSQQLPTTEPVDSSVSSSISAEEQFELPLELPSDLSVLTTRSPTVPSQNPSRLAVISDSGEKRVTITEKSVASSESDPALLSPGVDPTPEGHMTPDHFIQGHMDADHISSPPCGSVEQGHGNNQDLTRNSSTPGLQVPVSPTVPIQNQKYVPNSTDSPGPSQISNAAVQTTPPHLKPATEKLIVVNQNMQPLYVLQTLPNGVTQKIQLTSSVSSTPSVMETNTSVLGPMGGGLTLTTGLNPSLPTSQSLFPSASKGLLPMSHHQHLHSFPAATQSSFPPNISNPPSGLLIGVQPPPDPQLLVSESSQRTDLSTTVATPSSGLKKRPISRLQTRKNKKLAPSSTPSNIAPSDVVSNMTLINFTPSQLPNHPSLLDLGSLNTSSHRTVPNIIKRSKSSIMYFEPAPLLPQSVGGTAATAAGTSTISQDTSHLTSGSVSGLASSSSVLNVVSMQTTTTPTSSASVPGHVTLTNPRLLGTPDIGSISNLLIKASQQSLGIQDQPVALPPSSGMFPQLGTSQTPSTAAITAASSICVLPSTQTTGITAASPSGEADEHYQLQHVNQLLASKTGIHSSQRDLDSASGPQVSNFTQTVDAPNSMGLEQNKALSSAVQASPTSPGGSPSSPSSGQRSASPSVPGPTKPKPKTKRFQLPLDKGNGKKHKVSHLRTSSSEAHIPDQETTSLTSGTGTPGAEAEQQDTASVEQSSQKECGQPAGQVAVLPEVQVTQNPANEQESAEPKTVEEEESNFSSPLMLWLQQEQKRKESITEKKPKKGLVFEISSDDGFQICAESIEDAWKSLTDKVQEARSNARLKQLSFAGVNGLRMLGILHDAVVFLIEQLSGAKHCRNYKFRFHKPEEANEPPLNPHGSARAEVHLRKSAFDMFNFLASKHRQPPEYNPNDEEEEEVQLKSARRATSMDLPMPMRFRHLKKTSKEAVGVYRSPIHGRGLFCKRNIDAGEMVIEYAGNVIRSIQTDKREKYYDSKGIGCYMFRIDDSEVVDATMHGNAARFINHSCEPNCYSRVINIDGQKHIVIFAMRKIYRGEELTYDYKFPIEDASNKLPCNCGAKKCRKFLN
# Target: Histone-lysine N-methyltransferase 2A (Homo sapiens) (UniProt Q03164)
# Experiment: qHTS Fluorescence Polarization Assay for Inhibitors of MLL CXXC domain - DNA interaction
# Conditions: MLL-CXXC / FITC-HOXA9 DNA fluorescence polarization; activity change, negative = inhibition: at 115 µM (top of the series)
# In short: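 Fluorescence polarization: 7 uM MLL-CXXC (stock) preincubated 5 min with compounds, then 50 nM fluorescein-HOX-A9 DNA (stock) added; 30 min ambient. Buffer 50 mM Tris-HCl pH 7.5, 50 mM NaCl, 1 mM DTT, 0.05% BSA.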
# Potency means the concentration at half of the fitted maximal effect.
SMILES,Potency,"activity change, negative = inhibition"
COc1cccc(NC(=S)Nc2cccc3ccccc23)c1,"inconclusive: 12.6 µM [fluorescent, side channel, single point]",–
COCC1CCN(Cc2c(C(=O)N3CCc4ccccc4C3)nc3ccc(Cl)cn23)C1 (configuration not stated),"inconclusive: 39.8 µM [inhibitor, single point]",–
NS(=O)(=O)c1ccc(NC(=O)c2c(Cl)cccc2Cl)cc1,"inconclusive: 3.98 µM [inhibitor, partial curve]",–
Cc1ccc(Sc2ccc(/C=C3/C(=O)NN(c4ccccc4)C3=O)o2)cc1,"inconclusive: 35.5 µM [inhibitor, partial curve]",–
COc1ccc(CN2C(=O)CC(C(=O)NCCc3ccc(S(N)(=O)=O)cc3)SC2=Nc2ccccc2)cc1 (configuration not stated),"inconclusive: 63.1 µM [fluorescent, side channel, single point]",–
O=C(COC(=O)c1ccccc1Cl)NC(=O)NCc1ccccc1,–,inactive: 1.67%
O=C(O)CN1C(=O)/C(=C/c2cccc(Cl)c2)Oc2ccccc21,–,inactive: -4.6%
COCCCNCC(O)COc1ccccc1F (configuration not stated),"inconclusive: 11.2 µM [fluorescent, side channel, partial curve]",–
COc1ccc(/C=C/C(=O)Nc2ccccc2C(=O)O)cc1,–,inactive: 3.81%
CC(=O)c1c(C)[nH]c(C(=O)Nc2ccc(C)c(S(=O)(=O)N(C)C)c2)c1C,–,inconclusive: -1.06% [phenotype inactive]
CC(C)C1(CCNC(=O)c2cccs2)CCOC(C)(C)C1 (configuration not stated),"inconclusive: 1.58 µM [quencher, side channel, full curve]",–
O=c1c(-c2cccc(Cl)c2)c[nH]n1-c1ccccc1,"inconclusive: 3.98 µM [fluorescent, side channel, full curve, poor fit]",–
CCN1CCN(CCCNC(=O)c2ccc(/C=C3/Oc4ccccc4N(Cc4cccc(C)c4)C3=O)cc2)CC1,"inconclusive: 70.8 µM [quencher, single point]",–
Oc1c(C=Nc2cccc3cccnc23)sc2ccccc12,"inconclusive: 1 µM [fluorescent, side channel, full curve]",–
CCOC(=O)/C(=C/c1ccc(N2CCC(c3ccccc3)=N2)cc1)C(C)=O,"inconclusive: 35.5 µM [fluorescent, side channel, partial curve]",–
O=c1oc(-c2ccc(Cl)c(Cl)c2)nn1-c1ccc(C(F)(F)F)cn1,"inconclusive: 25.1 µM [quencher, side channel, partial curve]",–
CN1C=C/C(=C\c2cc[n+](C)c3ccccc23)c2ccccc21,"inconclusive: 39.8 µM [quencher, partial curve]",–
CC1=NN(c2cccc(Cl)c2)C(=O)C1,"inconclusive: 31.6 µM [inhibitor, partial curve]",–
Cc1ccc2c(c1)-c1cc(C)nn1C(c1sccc1C)N2 (configuration not stated),–,inactive: 4.68%
Cc1ccc(S(=O)(=O)c2nnn3c2nc(Nc2cccc(C)c2)c2ccccc23)cc1,"inconclusive: 100 µM [fluorescent, side channel, partial curve]",–
COc1cccc(N2CCN(C(=O)c3cc4ccc(OC)cc4[nH]3)CC2)c1,"inconclusive: 39.8 µM [fluorescent, side channel, single point]",–

SMILES,Potency,"activity change, negative = inhibition"
COc1ccc(F)cc1S(=O)(=O)NCC1CCCO1 (configuration not stated),–,inactive: -4.8%
CC1=NN(/C(=N\c2nnc(C)s2)Nc2ccc(C(C)(C)C)cc2)[C@H](c2ccc(C)cc2)S1,"inconclusive: 10 µM [inhibitor, single point]",–
COc1ccc(CN2CCN(Cc3cc(=O)oc4cc(C)ccc34)CC2)c(OC)c1OC,–,inactive: 18.5%
CN1c2ccc([N+](=O)[O-])cc2N(C)C1(C)c1ccccc1 (configuration not stated),–,inactive: -27.4%
CC(=O)N(C(C)=O)N1C(=O)c2cccc3c(N4CCOCC4)ccc(c23)C1=O,"inconclusive: 39.8 µM [fluorescent, side channel, single point]",–
CCOc1ccccc1N1CC(C(=O)Nc2ccc3c(c2)OCCO3)CC1=O (configuration not stated),–,inactive: 0.306%
O=C1OC(c2ccc(Cl)cc2)/C(=C(/O)c2ccccc2)C1=O (configuration not stated),"inconclusive: 31.6 µM [inhibitor, partial curve]",–
Cc1cc(Nc2ccc3c(c2)OCCO3)c2cc(Cl)ccc2n1,"inconclusive: 20 µM [quencher, side channel, partial curve]",–
S=c1[nH]nc(C2CCCCC2)n1/N=C/c1cccc(Cl)c1Cl,"inconclusive: 1.58 µM [fluorescent, side channel, full curve, poor fit]",–
Cc1cc(C)c2nc(-c3ccccn3)cc(C(=O)NCc3ccc(S(N)(=O)=O)cc3)c2c1,"inconclusive: 44.7 µM [fluorescent, side channel, single point]",–
O=C(O)Cc1ccc(C(=O)c2ccccc2)s1,"inconclusive: 35.5 µM [quencher, side channel, single point]",–
CC(Nc1ccc(Cl)cc1)c1cc(Cl)ccc1O (configuration not stated),–,inactive: -2.78%
COc1ccc(C(=O)NCC(=O)N2CCN(c3ccc(Cl)cc3)CC2)cc1,"inconclusive: 63.1 µM [fluorescent, side channel, single point]",–
COc1ccc(OCCn2cc(/C(N)=N/O)c3ccccc32)cc1,–,inactive: 0.831%
FC(F)(F)c1cccc(N/N=C/c2ccccc2)c1,"inconclusive: 79.4 µM [fluorescent, side channel, single point]",–
Oc1ccc(NC(=S)Nc2ccccc2)cc1,"inconclusive: 8.91 µM [fluorescent, side channel, partial curve]",–
CC1=CC(C)C(COC(=O)CN2CCCCC2)C(C)C1 (configuration not stated),–,inactive: -0.83%
c1ccc(CNc2ncnc3c2oc2ccccc23)nc1,"inconclusive: 100 µM [inhibitor, single point]",–
CC(=O)c1cc(NC(=O)c2ccc(Cl)cc2)c(=O)oc1/C=C/N(C)C,"inconclusive: 12.6 µM [fluorescent, side channel, full curve]",–
NC(=O)c1cc(-c2cccnc2)nc2ccc(Br)cc12,"inconclusive: 15.8 µM [quencher, side channel, single point]",–
Cc1ccc2cc(NC(=O)c3ccc(C(C)(C)C)cc3)ccc2n1,"inconclusive: 8.91 µM [fluorescent, side channel, single point]",–

# Sorted by formula weight (high to low): some entries from above.
SMILES,Potency,"activity change, negative = inhibition"
CC1=NN(/C(=N\c2nnc(C)s2)Nc2ccc(C(C)(C)C)cc2)[C@H](c2ccc(C)cc2)S1,"inconclusive: 10 µM [inhibitor, single point]",–
NC(=O)c1cc(-c2cccnc2)nc2ccc(Br)cc12,"inconclusive: 15.8 µM [quencher, side channel, single point]",–
Oc1c(C=Nc2cccc3cccnc23)sc2ccccc12,"inconclusive: 1 µM [fluorescent, side channel, full curve]",–

# (listing goes on)

SMILES,Potency,"activity change, negative = inhibition"
CN(C)/C=C/C(=O)c1ccc(OCCN(C)c2ccccn2)cc1,"inconclusive: 15.8 µM [fluorescent, side channel, single point]",–
COc1ccc2cc(C(=O)NCC3CCCO3)[nH]c2c1 (configuration not stated),"inconclusive: 11.2 µM [inhibitor, single point]",–
CCN(CC)c1ccc(/C=N/Nc2nc3ccccc3[nH]2)c(O)c1,"inconclusive: 5.62 µM [quencher, side channel, partial curve]",–
Cc1cccn2c(=O)c(/C=C3\SC(=S)N(CC(C)C)C3=O)c(NCCCOC(C)C)nc12,"inconclusive: 3.16 µM [fluorescent, side channel, full curve]",–
Cc1csc(SCC(=O)Nc2nncs2)n1,–,inactive: 2.87%
O=C(NCC1CCCO1)/C(=C/c1ccc(Cl)cc1)NC(=O)c1ccccc1 (configuration not stated),"inconclusive: 14.1 µM [inhibitor, single point]",–
Cc1cc(N2CCOCC2)n2nc(C)c(-c3ccc(Cl)cc3)c2n1,"inconclusive: 15.8 µM [inhibitor, single point]",–
O=C(NCC(=O)N1CCN(c2ccccc2)CC1)c1ccccc1,"inconclusive: 8.91 µM [inhibitor, single point]",–
COc1ccc(N2CCN(CCCNC(=O)c3ccc(CS(=O)(=O)c4ccc(Cl)cc4)o3)CC2)cc1,"inconclusive: 17.8 µM [quencher, side channel, partial curve]",–
COc1cccc(C(=O)C2CN(c3ccccc3)CC2c2ccc(Cl)cc2)c1 (configuration not stated),"inconclusive: 12.6 µM [inhibitor, single point]",–
CNC(=S)N(CCc1ccc(S(N)(=O)=O)cc1)C1CC(=O)N(c2ccccc2F)C1=O (configuration not stated),"inconclusive: 7.94 µM [inhibitor, partial curve]",–
Fc1ccc(NC(=S)NN2CCOCC2)cc1Cl,"inconclusive: 14.1 µM [inhibitor, single point]",–
CC(C)c1nc2sc3c(=O)[nH]cnc3c2c2c1CCC2,"inconclusive: 70.8 µM [quencher, side channel, single point]",–
N#C/C(=C\Nc1ccccc1SC(F)(F)F)c1nc(-c2ccc(F)cc2)cs1,"inconclusive: 15.8 µM [fluorescent, side channel, full curve, poor fit]",–
COC(=O)c1cn(-c2ccccc2)nc1-c1ccc(OC)c(OC)c1,"inconclusive: 35.5 µM [quencher, side channel, single point]",–
CC1(C)Cc2nc3sc4c(NCCO)ncnc4c3cc2CS1,"inconclusive: 15.8 µM [inhibitor, partial curve]",–
COc1ccc(NS(=O)(=O)c2cc(-c3nnnn3C)ccc2OC)cc1,"inconclusive: 89.1 µM [fluorescent, side channel, single point]",–
CCOC1=C/C(=C/c2c(N)n3nc(-c4ccccc4)sc3nc2=O)C=CC1=O,"inconclusive: 25.1 µM [fluorescent, partial curve]",–
O=C(Nc1ccc(F)cc1)c1ccc(=O)[nH]n1,"inconclusive: 35.5 µM [fluorescent, side channel, partial curve]",–
COC(=O)c1c(=O)n(O)c2ccc(OC)cc2[n+]1[O-],"inconclusive: 56.2 µM [inhibitor, single point]",–

# Source: PubChem BioAssay AID2662 (National Center for Advancing Translational Sciences (NCATS), 2010)
